Results deposited as PubChem BioAssay AID1508597 (Cure First, 2020)

Screen: 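Genes whose silencing sensitises or protects ovarian cancer cells against rucaparib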 (primary screen)
System: human ovarian carcinoma lines grown from tumours: OCI-P5x (papillary serous) and OCI-C5x (clear cell)
Reagent: siRNA pool against human genes, 1.25 pmol siRNA per well
Timing: 72 h or 96 h, depending on the cell culture
Challenge: rucaparib 20 µM (about IC30) or vehicle, present until read-out
Rucaparib or vehicle: Vehicle
Cell line: OCI-P5x (serous)
Measurement: 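ATP luminescence measured at 72 or 96 h according to the culture, then normalised and expressed as percent viability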
Direction: viability, normalised: higher = more viable cells remaining
Active means: 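Active when normalised viability falls below 80 percent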
Meaning of the calls: active = viability under 80%; inactive = viability 80% or more
Shown is a random part of the about 2,100 reagents, in one setting of the screen. 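Calls flag viability under 80% in either arm, not effects specific to rucaparib; the reference for percent is not stated.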 Entries without a mark were called inactive. Some reagents were tested in more than one well and are listed for each. Not given: the 100% reference.

| target gene | technical replicate | viability, normalised (%) |
| --- | --- | --- |
| URI1 | 1 | 80 (active) |
| URI1 | 2 | 80.2 |
| URI1 | 3 | 76.7 (active) |
| GLI1 | 1 | 62.2 (active) |
| GLI1 | 2 | 65.4 (active) |
| GLI1 | 3 | 73.1 (active) |
| F7 | 1 | 58.3 (active) |
| F7 | 2 | 59.9 (active) |
| F7 | 3 | 61.8 (active) |
| NEK10 | 1 | 112 |
| NEK10 | 2 | 100 |
| NEK10 | 3 | 107 |
| BAZ2B | 1 | 66.4 (active) |
| BAZ2B | 2 | 66.6 (active) |
| BAZ2B | 3 | 66.9 (active) |
| SMARCD2 | 1 | 50.6 (active) |
| SMARCD2 | 2 | 55.6 (active) |
| SMARCD2 | 3 | 86.2 |
| RHO | 1 | 45.9 (active) |
| RHO | 2 | 46.4 (active) |
| RHO | 3 | 66.1 (active) |
| SMCHD1 | 1 | 62.2 (active) |
| SMCHD1 | 2 | 59.4 (active) |
| SMCHD1 | 3 | 78.2 (active) |
| BUB1 | 1 | 67.8 (active) |
| BUB1 | 1 | 57.2 (active) |
| BUB1 | 2 | 53.1 (active) |
| BUB1 | 2 | 57.9 (active) |
| BUB1 | 3 | 55 (active) |
| BUB1 | 3 | 52.4 (active) |
| SNRK | 1 | 64.2 (active) |
| SNRK | 2 | 56.8 (active) |
| SNRK | 3 | 61.9 (active) |
| LPA | 1 | 72.1 (active) |
| LPA | 2 | 64.3 (active) |
| LPA | 3 | 78.3 (active) |
| PRKAR2B | 1 | 146 |
| PRKAR2B | 2 | 94.7 |
| PRKAR2B | 3 | 163 |
| WNT4 | 1 | 66.2 (active) |
| WNT4 | 2 | 69 (active) |
| WNT4 | 3 | 63.3 (active) |
| SLC25A26 | 1 | 65.7 (active) |
| SLC25A26 | 2 | 64.1 (active) |
| SLC25A26 | 3 | 68.6 (active) |
| TSPYL4 | 1 | 66.4 (active) |
| TSPYL4 | 2 | 87.7 |
| TSPYL4 | 3 | 73 (active) |
| CABIN1 | 1 | 60.3 (active) |
| CABIN1 | 2 | 81.1 |
| CABIN1 | 3 | 47.7 (active) |
| DHX40 | 1 | 38.6 (active) |
| DHX40 | 2 | 44.5 (active) |
| DHX40 | 3 | 44.7 (active) |
| PRP4K | 1 | 89.8 |
| PRP4K | 2 | 91.6 |
| PRP4K | 3 | 59.3 (active) |
| CHD8 | 1 | 80.4 |
| CHD8 | 2 | 88 |
| CHD8 | 3 | 60.5 (active) |
| PRDM12 | 1 | 77.4 (active) |
| PRDM12 | 2 | 49 (active) |
| PRDM12 | 3 | 49 (active) |
| TMPO | 1 | 96.6 |
| TMPO | 2 | 97.4 |
| TMPO | 3 | 87.9 |
| PINK1 | 1 | 89.8 |
| PINK1 | 2 | 78 (active) |
| PINK1 | 3 | 83.7 |
| DDX11 | 1 | 39.6 (active) |
| DDX11 | 2 | 61 (active) |
| DDX11 | 3 | 54 (active) |
| CNP | 1 | 73.8 (active) |
| CNP | 2 | 71.1 (active) |
| CNP | 3 | 70.6 (active) |

No new results follow: 6 of the entries above.
| target gene | technical replicate | viability, normalised (%) |
| --- | --- | --- |
| TSPYL4 | 1 | 66.4 (active) |
| TSPYL4 | 2 | 87.7 |
| TSPYL4 | 3 | 73 (active) |
| CABIN1 | 1 | 60.3 (active) |
| CABIN1 | 2 | 81.1 |
| CABIN1 | 3 | 47.7 (active) |
